Results are given in words; binding and its absence hold for the method and conditions named. Binding seen in cells or lysates may run through a third protein. Some binding calls cover weakened binding; strength is not graded here. For part of these data: Where a sequence is shown, tags or fusion partners need not be part of it.
Experiments:
[1] = biological target: T1, Myc-TAK1 (human) (human) (UniProt O43318); test: co-IP; 293 T cells transfected with tagged constructs (Lipofectamine 2000), collected 48 h after transfection; IP with anti-Fg or anti-Myc, immunoblot
T1 sequence: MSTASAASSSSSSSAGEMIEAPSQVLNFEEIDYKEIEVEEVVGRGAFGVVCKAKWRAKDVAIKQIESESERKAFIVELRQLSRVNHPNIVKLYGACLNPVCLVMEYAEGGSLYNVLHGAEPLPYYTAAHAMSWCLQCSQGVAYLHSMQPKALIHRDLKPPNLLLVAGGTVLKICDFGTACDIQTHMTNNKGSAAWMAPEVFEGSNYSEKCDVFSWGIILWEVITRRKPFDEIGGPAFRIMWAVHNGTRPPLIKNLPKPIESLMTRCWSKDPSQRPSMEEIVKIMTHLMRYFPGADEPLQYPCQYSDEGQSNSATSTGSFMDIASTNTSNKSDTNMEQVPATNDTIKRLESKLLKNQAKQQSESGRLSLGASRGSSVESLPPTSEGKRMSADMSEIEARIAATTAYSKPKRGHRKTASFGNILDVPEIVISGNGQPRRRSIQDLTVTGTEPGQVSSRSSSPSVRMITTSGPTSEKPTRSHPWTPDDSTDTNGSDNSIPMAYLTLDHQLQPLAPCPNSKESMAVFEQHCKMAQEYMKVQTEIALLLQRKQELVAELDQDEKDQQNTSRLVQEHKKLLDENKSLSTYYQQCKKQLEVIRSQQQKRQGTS

[2] = biological target: T2, Fg-USP8 (human ubiquitin-specific protease 8) (human) (UniProt P40818); test: as above
T2 sequence: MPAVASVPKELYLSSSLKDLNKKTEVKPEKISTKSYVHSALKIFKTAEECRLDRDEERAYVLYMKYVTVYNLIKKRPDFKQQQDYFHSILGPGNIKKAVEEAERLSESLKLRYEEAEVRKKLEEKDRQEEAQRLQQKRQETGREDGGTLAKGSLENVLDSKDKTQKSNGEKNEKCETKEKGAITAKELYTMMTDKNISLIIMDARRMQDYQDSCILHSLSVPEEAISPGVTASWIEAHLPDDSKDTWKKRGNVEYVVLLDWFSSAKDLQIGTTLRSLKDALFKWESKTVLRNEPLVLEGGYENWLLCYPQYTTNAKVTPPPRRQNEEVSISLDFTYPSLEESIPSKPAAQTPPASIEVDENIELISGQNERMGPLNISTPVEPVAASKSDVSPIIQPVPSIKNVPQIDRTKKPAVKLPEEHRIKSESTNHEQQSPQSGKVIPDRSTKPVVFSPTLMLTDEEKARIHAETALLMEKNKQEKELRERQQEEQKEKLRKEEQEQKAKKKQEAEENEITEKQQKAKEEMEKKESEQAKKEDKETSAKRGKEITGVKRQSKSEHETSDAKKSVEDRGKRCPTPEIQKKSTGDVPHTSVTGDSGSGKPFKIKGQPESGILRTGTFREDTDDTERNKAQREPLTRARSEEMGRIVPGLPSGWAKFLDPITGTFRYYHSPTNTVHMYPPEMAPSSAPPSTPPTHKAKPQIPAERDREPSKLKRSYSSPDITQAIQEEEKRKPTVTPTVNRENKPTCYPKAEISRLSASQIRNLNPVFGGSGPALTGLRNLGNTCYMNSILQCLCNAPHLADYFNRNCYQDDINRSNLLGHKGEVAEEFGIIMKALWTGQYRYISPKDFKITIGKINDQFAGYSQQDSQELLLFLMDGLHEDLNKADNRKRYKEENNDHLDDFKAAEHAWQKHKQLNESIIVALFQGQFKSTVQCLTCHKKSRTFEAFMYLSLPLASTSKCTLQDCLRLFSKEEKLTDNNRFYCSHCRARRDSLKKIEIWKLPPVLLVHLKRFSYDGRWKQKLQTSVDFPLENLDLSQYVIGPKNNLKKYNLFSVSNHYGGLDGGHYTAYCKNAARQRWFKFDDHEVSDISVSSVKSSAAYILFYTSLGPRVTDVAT

[3] = biological target: T3, endogenous USP8 (human breast cancer cells) (human (endogenous in breast cancer cells)) (UniProt P40818); test: co-IP; endogenous proteins in breast cancer cells; IP of USP8, blot for TAK1
T3 sequence: T2 sequence

B1: Fg-USP8 (human ubiquitin-specific protease 8) (enzyme, UniProt P40818 1-1118)
chain: T2 sequence
**Q.** How did the binding [1] turn out when B1 was run?
**A.** binds

B2: Myc-TAK1 (human) (enzyme, UniProt O43318 1-606)
chain: T1 sequence
**Q.** With B2 as the binder, how does the binding [2] read?
**A.** binds

B3: endogenous TAK1 (human breast cancer cells) (enzyme, UniProt O43318 1-606)
chain: T1 sequence
**Q.** B3 was tested. Which binding [3] did it give?
**A.** binds
